According to doi:10.1101/2025.10.27.684941:
No constants are given. Whether binding was seen depends on the method and setting. In cells and extracts the contact can be indirect. Binding calls can cover weak binding; strength is not graded here.

The chains behind the UniProt entries cited, without tags or fusion partners. Where a name states a change or a piece, a line headed by the entry shows the natural chain unless it says otherwise.
UniProt Q9UDY2: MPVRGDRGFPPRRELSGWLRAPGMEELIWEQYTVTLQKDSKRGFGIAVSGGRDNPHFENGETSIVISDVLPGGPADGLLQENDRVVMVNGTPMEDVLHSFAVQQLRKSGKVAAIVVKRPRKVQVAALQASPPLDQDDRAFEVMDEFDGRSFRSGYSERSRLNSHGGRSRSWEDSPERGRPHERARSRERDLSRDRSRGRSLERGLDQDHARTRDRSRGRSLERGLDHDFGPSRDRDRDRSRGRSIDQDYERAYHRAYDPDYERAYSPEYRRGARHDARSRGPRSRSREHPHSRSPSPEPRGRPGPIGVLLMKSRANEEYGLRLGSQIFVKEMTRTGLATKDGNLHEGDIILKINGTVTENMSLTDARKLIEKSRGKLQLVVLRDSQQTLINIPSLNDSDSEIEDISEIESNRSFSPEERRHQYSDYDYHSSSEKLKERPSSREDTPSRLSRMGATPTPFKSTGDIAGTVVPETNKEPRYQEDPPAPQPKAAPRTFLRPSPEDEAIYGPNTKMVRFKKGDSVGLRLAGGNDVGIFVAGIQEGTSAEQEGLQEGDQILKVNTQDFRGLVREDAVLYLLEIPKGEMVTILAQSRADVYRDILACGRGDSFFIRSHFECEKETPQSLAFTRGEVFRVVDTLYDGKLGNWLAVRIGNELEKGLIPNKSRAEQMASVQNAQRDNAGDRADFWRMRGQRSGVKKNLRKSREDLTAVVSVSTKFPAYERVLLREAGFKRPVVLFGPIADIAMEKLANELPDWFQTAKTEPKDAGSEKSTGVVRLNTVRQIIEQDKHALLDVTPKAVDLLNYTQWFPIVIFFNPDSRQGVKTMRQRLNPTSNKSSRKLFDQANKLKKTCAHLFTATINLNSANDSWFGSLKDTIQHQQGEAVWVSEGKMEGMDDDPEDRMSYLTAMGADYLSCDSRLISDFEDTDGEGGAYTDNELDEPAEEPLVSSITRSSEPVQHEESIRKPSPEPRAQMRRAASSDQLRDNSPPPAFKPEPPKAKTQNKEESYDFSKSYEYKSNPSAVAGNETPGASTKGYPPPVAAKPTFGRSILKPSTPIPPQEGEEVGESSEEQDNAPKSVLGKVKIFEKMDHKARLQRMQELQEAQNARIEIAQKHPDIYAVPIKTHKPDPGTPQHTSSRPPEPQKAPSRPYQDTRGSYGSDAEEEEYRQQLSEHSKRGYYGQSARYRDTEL
UniProt O54851: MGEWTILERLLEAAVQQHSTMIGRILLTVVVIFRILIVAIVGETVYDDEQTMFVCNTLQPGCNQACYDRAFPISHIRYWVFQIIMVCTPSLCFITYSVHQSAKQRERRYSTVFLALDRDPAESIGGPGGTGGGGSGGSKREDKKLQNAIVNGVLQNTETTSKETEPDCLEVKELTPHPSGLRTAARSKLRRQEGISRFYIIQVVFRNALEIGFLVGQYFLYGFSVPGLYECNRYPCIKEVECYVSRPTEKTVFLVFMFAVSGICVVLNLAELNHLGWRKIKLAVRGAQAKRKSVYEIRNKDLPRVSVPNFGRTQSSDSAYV

What follows are substances tested against first PDZ domain of ZO-2 (UniProt Q9UDY2) (assay: co-IP).

| Substance | binding |
| --- | --- |
| Connexin 36 (wild type) (from UniProt O54851 1-321) | binds |
| Cx36 A319T (from UniProt O54851 1-321) | binds |
| Cx36 D317A (from UniProt O54851 1-321) | binds |
| Cx36 D317F (from UniProt O54851 1-321) | binds |
| Cx36 S318ter (from UniProt O54851 1-317) (domain or fragment) | no binding |
